These are yes or no findings as the source states them, for the method shown. In cells and extracts the contact can be indirect. Some binding calls cover weakened binding; strength is not graded here. For some assays here: Where a sequence is shown, tags or fusion partners need not be part of it.
How the values were obtained:
[1] = target: T1, endogenous And-1 (human (endogenous in HEK293T)) (UniProt O75717); assay: co-IP; endogenous And-1 in HEK293T cells, with or without UVB; protein A/G beads coupled with antibody, 4 °C overnight; 20 mM Tris-HCl pH 8.0, 100 mM NaCl, 1 mM EDTA, 0.5% NP-40, 10 mM NaF
T1 sequence: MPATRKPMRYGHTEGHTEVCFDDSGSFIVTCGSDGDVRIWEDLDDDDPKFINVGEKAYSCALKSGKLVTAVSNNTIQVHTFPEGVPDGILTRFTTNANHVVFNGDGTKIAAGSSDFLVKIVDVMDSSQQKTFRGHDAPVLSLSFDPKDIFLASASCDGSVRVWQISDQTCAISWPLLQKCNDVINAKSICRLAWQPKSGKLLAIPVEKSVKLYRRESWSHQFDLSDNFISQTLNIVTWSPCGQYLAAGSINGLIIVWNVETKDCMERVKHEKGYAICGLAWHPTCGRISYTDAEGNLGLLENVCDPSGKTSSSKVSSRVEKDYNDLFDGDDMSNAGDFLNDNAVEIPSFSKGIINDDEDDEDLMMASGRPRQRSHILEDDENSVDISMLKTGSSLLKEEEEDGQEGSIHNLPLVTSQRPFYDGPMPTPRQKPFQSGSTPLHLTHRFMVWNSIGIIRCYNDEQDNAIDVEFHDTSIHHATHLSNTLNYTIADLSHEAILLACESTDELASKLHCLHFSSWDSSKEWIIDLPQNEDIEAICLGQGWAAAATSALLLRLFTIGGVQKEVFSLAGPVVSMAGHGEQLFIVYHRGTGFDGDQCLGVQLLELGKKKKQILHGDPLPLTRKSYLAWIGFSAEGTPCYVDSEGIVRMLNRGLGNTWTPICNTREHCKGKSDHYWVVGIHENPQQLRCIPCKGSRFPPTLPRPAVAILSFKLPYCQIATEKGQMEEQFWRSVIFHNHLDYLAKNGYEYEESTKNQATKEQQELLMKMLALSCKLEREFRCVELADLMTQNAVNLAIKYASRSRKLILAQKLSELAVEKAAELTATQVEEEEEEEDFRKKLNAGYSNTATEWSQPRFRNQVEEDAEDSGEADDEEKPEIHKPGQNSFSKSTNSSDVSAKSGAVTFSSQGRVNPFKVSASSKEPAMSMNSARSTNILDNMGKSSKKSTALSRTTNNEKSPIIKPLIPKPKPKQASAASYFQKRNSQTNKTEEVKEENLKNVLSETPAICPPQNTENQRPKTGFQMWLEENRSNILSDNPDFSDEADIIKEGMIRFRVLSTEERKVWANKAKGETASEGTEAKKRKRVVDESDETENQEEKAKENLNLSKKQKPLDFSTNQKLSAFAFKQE

Sequences of proteins named here, by UniProt entry; tags and fusion partners are left off.
UniProt Q16531: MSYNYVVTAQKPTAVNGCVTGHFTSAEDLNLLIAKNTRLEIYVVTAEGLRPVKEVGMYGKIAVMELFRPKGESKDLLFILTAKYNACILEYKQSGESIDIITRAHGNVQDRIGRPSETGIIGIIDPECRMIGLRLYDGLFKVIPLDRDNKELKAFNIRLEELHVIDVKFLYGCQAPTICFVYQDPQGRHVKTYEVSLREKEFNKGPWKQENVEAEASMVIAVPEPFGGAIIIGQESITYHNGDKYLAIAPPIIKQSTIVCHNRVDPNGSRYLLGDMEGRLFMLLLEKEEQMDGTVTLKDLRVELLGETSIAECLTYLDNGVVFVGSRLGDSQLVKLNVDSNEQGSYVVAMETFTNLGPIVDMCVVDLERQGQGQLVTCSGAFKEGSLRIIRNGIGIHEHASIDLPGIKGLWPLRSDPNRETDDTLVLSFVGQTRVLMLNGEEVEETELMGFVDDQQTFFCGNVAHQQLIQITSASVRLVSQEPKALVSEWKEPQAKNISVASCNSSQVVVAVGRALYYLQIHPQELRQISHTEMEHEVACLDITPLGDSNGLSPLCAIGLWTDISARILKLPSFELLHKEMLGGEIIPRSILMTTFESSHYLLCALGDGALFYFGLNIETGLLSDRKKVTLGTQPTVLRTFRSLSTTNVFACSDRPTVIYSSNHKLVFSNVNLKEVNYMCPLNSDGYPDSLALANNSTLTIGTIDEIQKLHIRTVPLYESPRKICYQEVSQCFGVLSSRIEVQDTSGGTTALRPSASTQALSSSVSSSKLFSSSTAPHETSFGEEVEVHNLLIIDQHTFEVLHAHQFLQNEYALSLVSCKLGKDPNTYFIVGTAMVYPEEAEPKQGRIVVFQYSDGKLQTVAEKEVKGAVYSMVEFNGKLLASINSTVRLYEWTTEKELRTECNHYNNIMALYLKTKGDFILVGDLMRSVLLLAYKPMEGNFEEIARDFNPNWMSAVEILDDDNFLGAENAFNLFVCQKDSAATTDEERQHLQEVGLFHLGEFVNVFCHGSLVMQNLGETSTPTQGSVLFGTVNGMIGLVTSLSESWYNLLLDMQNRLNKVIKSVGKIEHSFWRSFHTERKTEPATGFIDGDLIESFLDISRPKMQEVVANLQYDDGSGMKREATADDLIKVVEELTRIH

[2] = target: T2, FLAG-And-1, full-length And-1 (FL, 1–1129) (human) (UniProt O75717); assay: co-IP; FLAG-IP on Anti-FLAG-M2 affinity beads overnight from HEK293T cells expressing FLAG-And-1 or truncated mutants, with or without UVB; 20 mM Tris-HCl pH 8.0, 100 mM NaCl, 1 mM EDTA, 0.5% NP-40, 10 mM NaF
T2 sequence: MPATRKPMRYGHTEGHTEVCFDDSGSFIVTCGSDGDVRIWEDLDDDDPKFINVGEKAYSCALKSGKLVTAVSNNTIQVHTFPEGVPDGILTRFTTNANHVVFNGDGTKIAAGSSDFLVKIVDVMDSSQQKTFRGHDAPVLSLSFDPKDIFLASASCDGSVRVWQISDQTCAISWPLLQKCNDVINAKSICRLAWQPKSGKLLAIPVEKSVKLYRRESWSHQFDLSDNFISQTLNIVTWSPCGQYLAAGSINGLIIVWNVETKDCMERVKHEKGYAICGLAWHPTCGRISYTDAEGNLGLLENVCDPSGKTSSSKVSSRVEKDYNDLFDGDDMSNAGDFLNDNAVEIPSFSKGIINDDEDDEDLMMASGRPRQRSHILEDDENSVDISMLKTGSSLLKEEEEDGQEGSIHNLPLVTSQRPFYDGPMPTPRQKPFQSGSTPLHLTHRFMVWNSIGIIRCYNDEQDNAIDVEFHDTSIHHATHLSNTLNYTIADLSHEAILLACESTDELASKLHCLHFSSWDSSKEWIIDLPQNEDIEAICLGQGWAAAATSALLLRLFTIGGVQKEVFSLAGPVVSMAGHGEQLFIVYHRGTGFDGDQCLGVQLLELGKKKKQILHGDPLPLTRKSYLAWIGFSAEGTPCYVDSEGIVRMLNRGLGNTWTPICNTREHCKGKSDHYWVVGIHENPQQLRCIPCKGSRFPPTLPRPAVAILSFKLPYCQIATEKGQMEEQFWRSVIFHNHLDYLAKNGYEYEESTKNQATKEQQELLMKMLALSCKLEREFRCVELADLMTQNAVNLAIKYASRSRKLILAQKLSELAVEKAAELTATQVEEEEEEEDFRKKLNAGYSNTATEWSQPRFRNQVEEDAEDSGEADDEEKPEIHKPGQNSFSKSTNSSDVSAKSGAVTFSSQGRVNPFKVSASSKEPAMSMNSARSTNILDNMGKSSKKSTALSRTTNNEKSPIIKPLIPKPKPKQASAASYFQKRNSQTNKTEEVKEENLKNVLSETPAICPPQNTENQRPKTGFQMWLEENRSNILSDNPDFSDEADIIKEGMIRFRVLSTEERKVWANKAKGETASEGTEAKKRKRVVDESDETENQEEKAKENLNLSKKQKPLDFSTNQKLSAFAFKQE

[3] = target: T3, GST-HMG (And-1 HMG domain) (human) (UniProt O75717); assay: co-IP; GST-IP from HEK293T cells co-transfected with FLAG-SepB and GST-HMG for 40 h; without UVB, or UVB with pretreatment with the ATR inhibitor VE-821 for 6 h
T3 sequence: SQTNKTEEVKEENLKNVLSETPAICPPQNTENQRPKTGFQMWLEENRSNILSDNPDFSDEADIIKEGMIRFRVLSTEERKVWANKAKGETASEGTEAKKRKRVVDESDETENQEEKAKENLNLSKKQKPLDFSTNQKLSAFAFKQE

[4] = target: T3, GST-HMG (And-1 HMG domain) (human); assay: co-IP; GST-IP from HEK293T cells co-transfected with SepB (WT or T826A) and GST-HMG for 40 h, harvested 1 h after UVB 100 mJ/cm2, no ATR inhibitor
[5] = target: T4, And-1 (form used in the co-IP with p66 not shown) (human) (UniProt O75717); assay: co-IP; And-1 and p66; set-up shown only in Supplementary Fig. 2F
T4 sequence: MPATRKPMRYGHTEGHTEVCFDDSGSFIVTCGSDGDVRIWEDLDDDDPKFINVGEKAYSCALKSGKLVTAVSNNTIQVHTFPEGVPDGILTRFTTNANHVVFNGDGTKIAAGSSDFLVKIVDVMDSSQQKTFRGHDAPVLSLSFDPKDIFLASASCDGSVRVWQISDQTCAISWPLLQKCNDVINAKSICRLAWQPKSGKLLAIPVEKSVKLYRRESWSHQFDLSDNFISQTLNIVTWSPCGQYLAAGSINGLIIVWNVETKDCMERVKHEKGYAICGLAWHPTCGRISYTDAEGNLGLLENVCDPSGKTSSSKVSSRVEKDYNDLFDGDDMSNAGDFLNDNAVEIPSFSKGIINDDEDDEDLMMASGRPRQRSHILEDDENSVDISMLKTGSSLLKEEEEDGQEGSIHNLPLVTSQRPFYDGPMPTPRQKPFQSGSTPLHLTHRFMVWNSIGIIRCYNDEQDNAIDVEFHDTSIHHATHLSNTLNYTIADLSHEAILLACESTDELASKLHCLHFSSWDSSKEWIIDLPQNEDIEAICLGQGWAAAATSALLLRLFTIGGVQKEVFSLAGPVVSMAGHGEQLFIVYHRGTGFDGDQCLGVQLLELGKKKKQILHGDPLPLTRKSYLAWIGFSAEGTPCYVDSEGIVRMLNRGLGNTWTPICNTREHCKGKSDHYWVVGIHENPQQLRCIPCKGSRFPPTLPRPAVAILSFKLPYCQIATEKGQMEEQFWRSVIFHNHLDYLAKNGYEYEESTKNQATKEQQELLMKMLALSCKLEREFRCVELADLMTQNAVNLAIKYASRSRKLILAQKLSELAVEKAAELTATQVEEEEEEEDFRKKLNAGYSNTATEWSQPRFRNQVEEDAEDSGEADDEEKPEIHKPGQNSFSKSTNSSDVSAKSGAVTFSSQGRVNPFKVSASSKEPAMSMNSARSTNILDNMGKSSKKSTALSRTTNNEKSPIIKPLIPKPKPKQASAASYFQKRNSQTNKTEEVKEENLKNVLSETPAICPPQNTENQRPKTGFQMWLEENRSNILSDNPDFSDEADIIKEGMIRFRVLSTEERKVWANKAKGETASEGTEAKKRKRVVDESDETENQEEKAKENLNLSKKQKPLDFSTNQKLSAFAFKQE

Molecule: DDB1 (from UniProt Q16531 1-1140)
- binding [1]: binds
- binding [2]: binds

B1: FLAG-And-1 SepB domain (330–984) (domain or fragment, UniProt O75717 330-984)
chain: DDMSNAGDFLNDNAVEIPSFSKGIINDDEDDEDLMMASGRPRQRSHILEDDENSVDISMLKTGSSLLKEEEEDGQEGSIHNLPLVTSQRPFYDGPMPTPRQKPFQSGSTPLHLTHRFMVWNSIGIIRCYNDEQDNAIDVEFHDTSIHHATHLSNTLNYTIADLSHEAILLACESTDELASKLHCLHFSSWDSSKEWIIDLPQNEDIEAICLGQGWAAAATSALLLRLFTIGGVQKEVFSLAGPVVSMAGHGEQLFIVYHRGTGFDGDQCLGVQLLELGKKKKQILHGDPLPLTRKSYLAWIGFSAEGTPCYVDSEGIVRMLNRGLGNTWTPICNTREHCKGKSDHYWVVGIHENPQQLRCIPCKGSRFPPTLPRPAVAILSFKLPYCQIATEKGQMEEQFWRSVIFHNHLDYLAKNGYEYEESTKNQATKEQQELLMKMLALSCKLEREFRCVELADLMTQNAVNLAIKYASRSRKLILAQKLSELAVEKAAELTATQVEEEEEEEDFRKKLNAGYSNTATEWSQPRFRNQVEEDAEDSGEADDEEKPEIHKPGQNSFSKSTNSSDVSAKSGAVTFSSQGRVNPFKVSASSKEPAMSMNSARSTNILDNMGKSSKKSTALSRTTNNEKSPIIKPLIPKPKPKQASAASYFQKRNS
- binding [3]: binds

B2: SepB domain with T826A mutation (domain or fragment, UniProt O75717 330-984)
chain: DDMSNAGDFLNDNAVEIPSFSKGIINDDEDDEDLMMASGRPRQRSHILEDDENSVDISMLKTGSSLLKEEEEDGQEGSIHNLPLVTSQRPFYDGPMPTPRQKPFQSGSTPLHLTHRFMVWNSIGIIRCYNDEQDNAIDVEFHDTSIHHATHLSNTLNYTIADLSHEAILLACESTDELASKLHCLHFSSWDSSKEWIIDLPQNEDIEAICLGQGWAAAATSALLLRLFTIGGVQKEVFSLAGPVVSMAGHGEQLFIVYHRGTGFDGDQCLGVQLLELGKKKKQILHGDPLPLTRKSYLAWIGFSAEGTPCYVDSEGIVRMLNRGLGNTWTPICNTREHCKGKSDHYWVVGIHENPQQLRCIPCKGSRFPPTLPRPAVAILSFKLPYCQIATEKGQMEEQFWRSVIFHNHLDYLAKNGYEYEESTKNQATKEQQELLMKMLALSCKLEREFRCVELADLMTQNAVNLAIKYASRSRKLILAQKLSELAVEKAAELTAAQVEEEEEEEDFRKKLNAGYSNTATEWSQPRFRNQVEEDAEDSGEADDEEKPEIHKPGQNSFSKSTNSSDVSAKSGAVTFSSQGRVNPFKVSASSKEPAMSMNSARSTNILDNMGKSSKKSTALSRTTNNEKSPIIKPLIPKPKPKQASAASYFQKRNS
- binding [4]: binds

B3: p66 (POLD3/p66) (protein, UniProt Q15054 1-466)
chain: MADQLYLENIDEFVTDQNKIVTYKWLSYTLGVHVNQAKQMLYDYVERKRKENSGAQLHVTYLVSGSLIQNGHSCHKVAVVREDKLEAVKSKLAVTASIHVYSIQKAMLKDSGPLFNTDYDILKSNLQNCSKFSAIQCAAAVPRAPAESSSSSKKFEQSHLHMSSETQANNELTTNGHGPPASKQVSQQPKGIMGMFASKAAAKTQETNKETKTEAKEVTNASAAGNKAPGKGNMMSNFFGKAAMNKFKVNLDSEQAVKEEKIVEQPTVSVTEPKLATPAGLKKSSKKAEPVKVLQKEKKRGKRVALSDDETKETENMRKKRRRIKLPESDSSEDEVFPDSPGAYEAESPSPPPPPSPPLEPVPKTEPEPPSVKSSSGENKRKRKRVLKSKTYLDGEGCIVTEKVYESESCTDSEEELNMKTSSVHRPPAMTVKKEPREERKGPKKGTAALGKANRQVSITGFFQRK
- binding [5]: binds
